PubChem BioAssay AID686943, Drosophila RNAi Screening Center – 2013
Test: 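Search across the genome for regulators of signalling from receptor tyrosine kinase to ERK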 (primary screen). System: Drosophila S2R+ haemocyte-like cells expressing YFP-tagged ERK (Rolled). Reagent: long dsRNA against Drosophila genes. Challenge: insulin stimulation versus unstimulated cells; dose and duration not given. Measurement: 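Per-plate z-scores of phospho-ERK immunostaining normalised to YFP-tagged ERK, measured with and without insulin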. Reading the numbers: replicate 1, z-score of dpERK with insulin: higher = more active ERK per ERK-YFP after insulin.
The deposit covers about 23,000 reagents; below is an unselected part of those with a known target gene and a result. 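Extra replicates exist only for a retested subset of genes; insulin dose and duration not given; both raised and lowered dpERK matter.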 Names joined by + are all predicted targets of the reagent. Not all columns of the deposit are shown. Not stated in the record: the amount of reagent, the time to read-out.

replicate 1, z-score of dpERK with insulin, by gene and reagent
Nep5: SID104195796 0.06
CG34034: SID104193298 -0.91
Sur-8: SID104195586 -3.31
CG30196: SID104183948 0.22
Nepl9: SID104182047 -0.65
CG3961: SID104190182 -0.31; SID104190183 -0.52
bsk: SID104183291 -0.24
HipHop: SID104190526 0.33
tko: SID104198636 -0.5
CG5885: SID104182702 0.27
RpS21: SID104180625 -1.13
Kpc2: SID104187427 -0.67
CG9630: SID104196319 0.36
CG3552: SID104190162 -0.38
Rap2l: SID104184438 0.53
CG12133: SID104185900 1.23
Ino80: SID104194552 -0.15; SID104195125 -0.29; SID104195293 -0.29
CG5274: SID104191566 -0.57
Ir10a: SID104198683 1.27; SID104199270 -0.18; SID104199271 0.98
E(spl)mdelta-HLH: SID104196490 0.54
reb: SID104186100 0.28
Atac3: SID104188371 0.38
magu: SID104186624 -0.04
Hrs: SID104180341 -0.02
CG1542: SID104194827 -0.06
CG11786: SID104194181 0.21
Amph: SID104187370 -0.59
CheB93a: SID104194836 -0.16
nxf2: SID104190195 0.06
Pvf3: SID104182076 1.96; SID104182077 1.36; SID104182078 -0.37; SID104182543 1.45
CG12998: SID104199310 0.4
dpr10: SID104188807 0.86; SID104188810 0.74; SID104189951 0.19; SID104189952 0.17
Uba4: SID104181986 1.38
CG13751: SID104186214 0.08
CG1724: SID104200340 -1.49
X11Lbeta: SID104197948 -0.57; SID104197950 -0.22
CheA29a: SID104201216 -0.16
CG1494: SID104200301 -0.52
CG1227: SID104192326 -0.66
Impbeta11 + asRNA:CR43429: SID104187317 0.2
spz3: SID104182183 0.4; SID104182800 1.36
hth: SID104196759 0.39
Cht10: SID104183558 0.52; SID104183559 -0.02; SID104183560 0.57

Entries above whose gene name starts with X or x:
replicate 1, z-score of dpERK with insulin, by gene and reagent
X11Lbeta: SID104197948 -0.57; SID104197950 -0.22
